Experimental findings from paper PMC4680862 are described below.

For at least one entry, the source does not settle the construct or the ends of the probe. No signal at the amounts used counts as a negative.

The test system of data set [1] is PhFBH4 (Petunia (species/cultivar not in the material)). The data set can be described thus: EMSA. To be noted: LightShift chemiluminescent EMSA kit (Pierce), 1 ug recombinant protein, 2 nM biotin probe, pH and temperature not stated (according to Luo et al.), protein details: GST (N-terminal, pGEX). On the technique in general: A gel shift assay detects complexes by their altered migration in electrophoresis.

Data set [2] shares this test system. The data set can be described thus: competition with a labelled probe. As to conditions: LightShift chemiluminescent EMSA kit (Pierce), 1 ug recombinant protein, 2 nM biotin probe, pH and temperature not stated (according to Luo et al.), protein details: GST (N-terminal, pGEX).
Setting [3] is: 1 ug protein, 2 nM probe, label: biotin.

For the sequence “TTAAATCACACATGAATAATATCAAATGTTTTGGTC (double strand) [proACO1 E-box probe]”, the binding result in data set [1] (setting [3]) is given as “no binding”. For the sequence “TTTCTTTCTCACGTGTAGCTTCTA (double strand) [proACS1 G-box probe]”, in data set [1] (setting [3]), the binding result was “binds”. On to “TTTCTTTCTCACGTGTAGCTTCTA (double strand) [proACS1 unlabeled competitor]”, for which, in data set [2] (unlabeled 10-, 100-, 1000-fold excess, gradually abolished binding), the binding result is listed as “binds”. Take “TTTCTTTCTGCTACTTAGCTTCTA (double strand) [mutated proACS1 probe]”: the binding result in data set [2] (excess mutant competitor, binding to proACS1 maintained, label: biotin (unlabeled as competitor)) was “no binding”; in data set [1] (labeled mutant probe per Results (lane 6), legend calls lane 6 a mutant competitor lane, label: biotin (unlabeled as competitor)) it was “no binding”.
